# At least one compound was matched to its structure with a doubt left.
# Columns and labels:
# A375 melanoma cells = experiment: Colony formation assay; assay type: cell-based, human; details: A375 Cx43 vs EV, 7 days, 250 nM Palbociclib, 500 nM Abemaciclib and Ribociclib
# Procedure: (§1) Cell lines (A375 and HT29) were transfected by electroporation to overexpress Cx43. The Amaxa® Cell Line Nucleofector® Kit V (Lonza) was used to transfect cells in a Cell Line Nucleofector™ Device (Lonza). A million cells were harvested and resuspended in 100 μL of Nucleofector® solution. 3 μg of the corresponding plasmid was added, and the mixture was transferred into an electroporation cuvette using the U-28 program. Cell lines were transfected with pIRESpuro2 plasmid construct (Clontech) containing the human Cx43 sequence, kindly donated by Arantxa Tabernero (Institute of Neuroscience of Castilla y León, University of Salamanca, Spain). The transfected cells were seeded in culture medium and 24 hours (h) post-transfection the medium was replaced with complete medium containing puromycin dihydrochloride (Tocris, Bioscience) at different concentrations depending of the cell line (0.5 μg/mL to 2 μg/mL). […]
# (§2) Colony formation assays were performed plating 5×10^3 to 5×10^4 cells per well onto 6-12 well plates and grown for 7-15 days. […] The colonies were quantified by diluting crystal violet in 30% acetic acid and 100 μL of the solution was collected to measure the absorbance at 570 nm using a NanoQuant microplate reader Infinite M200 (TECAN).
# T47D cells [1] = experiment: Colony formation assay; assay type: cell-based; details: 7 days treatment
# Procedure: (§3) Cells were treated with 250 nM of Palbociclib (PD0332991) (APExBIO), 500 nM Abemaciclib (LY2835219) (Selleckchem) or 500 nM Ribociclib (LEE011) (Selleckchem) for 7 days. All treatments were done using DMEM supplemented with 10% FBS and 100 U/mL penicillin and 100 μg/ml streptomycin. Media was replaced every 2 days.
# (§4) Colony formation assays were performed plating 5×10^3 to 5×10^4 cells per well onto 6-12 well plates and grown for 7-15 days. Medium was replaced every 48 h. The cells were washed with warm Saline Solution and fixed with cold 4% PFA for 15 min. Cells were washed with PBS and stained with 0.05% of crystal violet (Sigma-Aldrich) for 15 min. After staining, the cells were washed with distilled water and dried at room temperature. The colonies were quantified by diluting crystal violet in 30% acetic acid and 100 μL of the solution was collected to measure the absorbance at 570 nm using a NanoQuant microplate reader Infinite M200 (TECAN).
# HEK 293T cells were seeded onto 162 cm^2 culture flasks (Corning, Sigma-Aldrich) until confluence (80%-90%). Cells were washed three times with PBS and cultured for 48 h in DMEM 0% FBS. Supernatants were collected and centrifuged at 1800 rpm for 5 min. Pellet was discarded and supernatants were filtered through a 0.22 μm filter and then the filtered supernatants were centrifuged at 100,000 g for 90 min at 4° C. […]
# [2] = test system: HT29 colon adenocarcinoma cells; experiment: Proliferation of colon cells (colony formation); assay type: cell-based; details: HT29 Cx43 vs EV, 7 days, 250 nM Palbociclib, 500 nM Abemaciclib and Ribociclib
# Procedure: as §1, §2
# MCF7 cells [3] = experiment: Colony formation assay; assay type: cell-based, human; details: MCF7 Cx43 vs EV, 7 days
# Procedure: Retroviral infection was used to overexpress Cx43 in MCF7 cells. Retroviral particles were generated by transfecting pLPCX-Cx43 and pLPCX-EV plasmids, kindly donated by Dr. Trond Aasen, and retroviral helper plasmids (vsvg and gag-pol) with Polyethylenimine (PEI) in HEK293T packaging cells for 48 h. The supernatant was then filtered with 0.45 μm filters and applied to MCF7 cells in the presence of 4 μg/ml polybrene (hexadimethrine bromide; Sigma-Aldrich) following 3 rounds of infection. Cells were subsequently selected with the appropriate antibiotic resistance using 0.5 μg/ml puromycin (Sigma).
# as §3
# as §4, with “Cells were washed with PBS and stained with 0.05% of crystal violet (Sigma-Aldrich) for 15 min. After staining, the cells were washed with distilled water and dried at room temperature.” left out, “(TECAN). […]” for “(TECAN).”
# T47D cells [4] = experiment: Gene expression of Cx43 and senescence markers (qPCR); assay type: cell-based; details: Palbo 7 days
# MCF7 cells [5] = experiment: Senescence and apoptosis markers (western-blot, qPCR, SA-β-galactosidase); assay type: cell-based, human; details: MCF7 (EV), 250 nM Palbo 7 days
# Procedure: Cells were grown onto coverslips and fixed with 4% paraformaldehyde (PFA) for 10 min at room temperature (RT). Cells were then washed twice with PBS and permeabilized by incubation with 0.2% Triton X-100 (Sigma) in PBS for 10 min at RT. After a PBS wash, cells were blocked 30 min at RT using 1% BSA in PBS supplemented with 0.1% Tween-20 (PBST). Primary antibodies were diluted in 1% BSA-PBST and incubated overnight (anti-Cx43 (#C6219), Sigma-Aldrich 1:1000; anti-Tubulin (T9026). Cells were then washed with PBS and incubated with secondary antibodies for 1 h at RT. HRP-conjugated secondary antibodies used were anti-mouse (NA-931, Sigma-Aldrich) and anti-rabbit ([…], Sigma-Aldrich). Cells were washed with PBS and fixed with 4% paraformaldehyde for 15 mins at room temperature. […] (Senescence Cells Histochemical Staining Kit Ref […]; Sigma). Cells were imaged using a light microscope at 20× magnification and single representative images of each well were taken. […] RNA samples were quantified in a Nanodrop® ND-1000 (Thermo Fisher Scientific). 1 μg of RNA was used to synthesize complementary DNA (cDNA) with the SuperscriptTM IV VILOTM Master Mix (Invitrogen, Thermo Fisher Scientific) following manufacturer's protocol. cDNA samples are quantified in a Nanodrop® ND-1000 (Thermo Fisher Scientific) and resuspended in DNase/RNase/Protease-free water (Sigma-Aldrich). […]
Structure (SMILES),effect of Cx43 overexpression on inhibitor efficacy (reduction in proliferation) (A375 melanoma cells),colony formation capacity (T47D cells [1]),effect of Cx43 overexpression on inhibitor efficacy (reduction in proliferation) [2],effect of Cx43 overexpression on the CDK4/6 inhibitor's effect on cell proliferation (MCF7 cells [3]),"gene expression of Cx43, p21 and SASP factors (IL6, IL8 and MMP9) (T47D cells [4])",Cx43 basal protein levels after treatment (MCF7 cells [5])
CCN1CCN(Cc2ccc(Nc3ncc(F)c(-c4cc(F)c5nc(C)n(C(C)C)c5c4)n3)nc2)CC1 [Abemaciclib],increases the efficacy,effectively respond,increases the efficacy,enhances the effect,–,–
CC(=O)c1c(C)c2cnc(Nc3ccc(N4CCNCC4)cn3)nc2n(C2CCCC2)c1=O [Palbociclib],–,effectively respond,–,–,upregulation,slighted increased
